From PubChem BioAssay AID330 (DTP/NCI, 2004)
The list is a part of this screen's results and no random one: it gathers tests that were run many times, whatever their T/C, doses with no T/C, and many T/C values between a quarter and a half above the control. Other doses and runs of a compound stand elsewhere. T/C gives the treated animals as a percentage of the vehicle group. Some entries give survivors of the animals treated and no T/C: the source files T/C as zero there, which appears to mark a toxic dose or a test without result, not a measured value. Some survivor counts are full or nearly so, which does not show that the dose was tolerated: the source hardly ever lists a survival T/C far under the control, and the zero likely stands for such cases as well. Counts of survivors are from the toxicity check (mostly the fifth day) where no day follows; animals may have died later. Schedules are NCI's codes, read here as Q, the interval in days (D) or hours (H), X, the number of doses. Some entries were tested several times; their values stand side by side, smallest first. Where survival is the endpoint, this PubChem deposit counts one and a half times the control or more as active, and values a quarter to a half above the control carry no call in these data; other NCI protocols may use other cut-offs. Some T/C values are followed by the survivors on the day toxicity was checked, most often the fifth; where none is given, no animal had died by that day.

System: P388 leukemia ip, CD2F1 mice, survival T/C
Test: NCI In Vivo Anticancer Drug Screen. Data for tumor model P388 Leukemia (intraperitoneal) in CD2F1 (CDF1) mice
Settings: T/C endpoint: median survival time, higher T/C = longer survival
[1] = dose: 200.0 mg/kg/injection, schedule: Q01DX009 (ip), vehicle: saline
[2] = dose: 200.0 mg/kg/injection, schedule: Q01DX009 (ip), vehicle: Klucel (hydroxypropylcellulose) (HPC)
[3] = dose: 240.0 mg/kg/injection, schedule: Q01DX005 (ip), vehicle: saline with Tween-80
[4] = dose: 200.0 mg/kg/injection, schedule: Q01DX005 (ip), vehicle: Klucel (hydroxypropylcellulose) (HPC)
[5] = dose: 12.5 mg/kg/injection, schedule: Q04DX002 (ip), vehicle: saline with Tween-80
[6] = dose: 25.0 mg/kg/injection, schedule: Q04DX002 (ip), vehicle: saline with Tween-80
[7] = dose: 240.0 mg/kg/injection, schedule: Q01DX005 (ip), vehicle: saline

CN(C)C1C(O)C2Oc3c(cc(O)c4c3C(=O)c3cc5c(c(O)c3C4=O)C(N3CCCC3)CC(C)(O)C5)C(C)(O2)C1O (stereo unspecified)
T/C (dose: 25.0 mg/kg/injection, schedule: Q01DX009 (ip), vehicle: other): 130 % of control
T/C (dose: 50.0 mg/kg/injection, schedule: Q01DX009 (ip), vehicle: other): 140 % of control

NC(=O)/N=[N+](\[O-])c1ccccc1
survivor count (dose: 200.0 mg/kg/injection, schedule: Q04DX003 (ip), vehicle: Klucel (hydroxypropylcellulose) (HPC)): 1 of 6

CC(C)(O)C1C2OC(=O)C1C1(O)CC3OC34C(=O)OC2C14C (stereo unspecified)
survivor count (dose: 75.0 mg/kg/injection, schedule: Q04DX003 (ip), vehicle: saline with Tween-80): 4 of 6

N#CCCN(CCC#N)Cc1c(O)c(O)c(CN(CCC#N)CCC#N)c2ccccc12
T/C (dose: 400.0 mg/kg/injection, schedule: Q01DX005 (ip), vehicle: saline with Tween-80): 125 % of control

O=C1c2ccccc2NC(c2cc(Cl)cc(Cl)c2O)N1CCc1ccccn1 (stereo unspecified)
survivor count [1]: 6 of 6

CCCCOC(=O)c1[nH]cnc1/N=N\N(C)C
T/C (dose: 50.0 mg/kg/injection, schedule: Q01DX009 (ip), vehicle: saline with Tween-80): 145 % of control
T/C (dose: 200.0 mg/kg/injection, schedule: Q04DX003 (ip), vehicle: saline with Tween-80, evaluated on day 20): 141 % of control
T/C (dose: 200.0 mg/kg/injection, schedule: Q04DX003 (ip), vehicle: saline with Tween-80, evaluated on day 30): 131 % of control

Cc1nc(C)c(Cl)c(OS(=O)(=O)CCCCl)c1Cl
survivor count (dose: 75.0 mg/kg/injection, schedule: Q01DX009 (ip), vehicle: Klucel (hydroxypropylcellulose) (HPC)): 5 of 6
survivor count (dose: 100.0 mg/kg/injection, schedule: Q01DX009 (ip), vehicle: Klucel (hydroxypropylcellulose) (HPC)): 2 of 6
survivor count [2]: 1 of 6

Cc1ccc(NCCCC2CCCN3CCCCC23)c2c(=O)c3ccccc3sc12 (stereo unspecified)
survivor count (dose: 100.0 mg/kg/injection, schedule: Q01DX005 (ip), vehicle: distilled water + Tween-80): 4 of 6
survivor count (dose: 200.0 mg/kg/injection, schedule: Q01DX005 (ip), vehicle: distilled water + Tween-80): 0 of 6

N=C(N)c1ccc(-c2ccc(-c3ccc(C(=N)N)cc3)s2)cc1
T/C (dose: 50.0 mg/kg/injection, schedule: Q04DX003 (ip), vehicle: suspension in saline): 130 % of control
T/C (dose: 100.0 mg/kg/injection, schedule: Q04DX003 (ip), vehicle: suspension in saline): 127 % of control [5 of 6 alive]
survivor count (dose: 200.0 mg/kg/injection, schedule: Q04DX003 (ip), vehicle: suspension in saline): 2 of 6
survivor count (dose: 400.0 mg/kg/injection, schedule: Q04DX003 (ip), vehicle: suspension in saline): 2 of 6

O=S(=O)(O)c1cc2cc(S(=O)(=O)O)c3nnc4cc(S(=O)(=O)O)cc5cc(S(=O)(=O)O)c(nnc6cc(S(=O)(=O)O)cc7cc(S(=O)(=O)O)c(nnc(c1)c2c3O)c(O)c76)c(O)c54
survivor count (dose: 120.0 mg/kg/injection, schedule: Q01DX005 (ip), vehicle: saline with Tween-80): 0 of 6 and 1 of 6
survivor count [3]: 0 of 6

CCOC(=O)C(C(=O)OCC)c1nc[nH]c1[N+](=O)[O-]
survivor count (dose: 200.0 mg/kg/injection, schedule: Q04DX003 (ip), vehicle: saline with Tween-80): 6 of 6
survivor count (dose: 400.0 mg/kg/injection, schedule: Q04DX003 (ip), vehicle: saline with Tween-80): 6 of 6

O=[N+]([O-])c1csc([N+](=O)[O-])c1
survivor count (dose: 75.0 mg/kg/injection, schedule: Q01DX009 (ip), vehicle: saline with Tween-80): 3 of 6
survivor count (dose: 150.0 mg/kg/injection, schedule: Q01DX009 (ip), vehicle: saline with Tween-80): 3 of 6
survivor count (dose: 300.0 mg/kg/injection, schedule: Q01DX009 (ip), vehicle: saline with Tween-80): 0 of 6

CC1(C)COC(=O)C(C#N)=C1CBr
survivor count (dose: 100.0 mg/kg/injection, schedule: Q01DX005 (ip), vehicle: Klucel (hydroxypropylcellulose) (HPC)): 0 of 6
survivor count [4]: 0 of 6

[Cl][Pt+2][Cl].[NH-]C(c1ccc(Cl)cc1)C([NH-])c1ccc(Cl)cc1 (stereo unspecified)
T/C [5]: 131 % of control
T/C [6]: 133 % of control

CCN(CC)C(C)C(=O)c1ccc2cc(Br)c3ccccc3c2c1 (stereo unspecified)
survivor count (dose: 200.0 mg/kg/injection, schedule: Q01DX005 (ip), vehicle: saline): 0 of 5

c1ccc2c(c1)[nH]c1c2nc2ncccn21
survivor count [4]: 0 of 6

CC1(C)CO/C(=C/C(=O)c2ccccc2)N1C(=O)c1ccccc1
survivor count [3]: 6 of 6

CCN(CC)CCCC(C)NC(=O)Cc1cc(O)c2c(c1O)C(=O)c1ccccc1C2=O (stereo unspecified)
T/C (dose: 40.0 mg/kg/injection, schedule: Q01DX009 (ip), vehicle: water): 125 % of control

CCN(CC)CCNC(c1ccc(OC)cc1)C(Cl)(Cl)Cl (stereo unspecified)
survivor count [7]: 3 of 6

ClCCN(CCCl)CCOc1ccc(-c2nc3ccccc3[nH]2)cc1
T/C (dose: 3.13 mg/kg/injection, schedule: Q04DX002 (ip), vehicle: saline with Tween-80): 132 % of control
T/C (dose: 6.25 mg/kg/injection, schedule: Q04DX002 (ip), vehicle: saline with Tween-80): 131 % of control
survivor count [5]: 3 of 6
survivor count [6]: 0 of 6
survivor count (dose: 100.0 mg/kg/injection, schedule: Q04DX002 (ip), vehicle: saline with Tween-80): 0 of 6
survivor count (dose: 200.0 mg/kg/injection, schedule: Q04DX002 (ip), vehicle: saline with Tween-80): 0 of 6
survivor count (dose: 400.0 mg/kg/injection, schedule: Q04DX002 (ip), vehicle: saline with Tween-80): 0 of 6

Cc1cc2c(cc1C)-c1nn(-c3ccccc3)c(-c3ccc(Cl)cc3)c1CCO2
survivor count (dose: 100.0 mg/kg/injection, schedule: Q01DX005 (ip), vehicle: saline with Tween-80): 6 of 6
survivor count (dose: 200.0 mg/kg/injection, schedule: Q01DX005 (ip), vehicle: saline with Tween-80): 6 of 6

C=C(C)C(=NC(C)(C)C)N1CCCCC1
survivor count [4]: 0 of 5

C[C@]12C=CC(=O)C=C1CC[C@H]1[C@@H]3C[C@@H](O)[C@](O)(C(=O)CO)[C@@]3(C)C[C@H](O)[C@@]12F
survivor count (dose: 400.0 mg/kg/injection, schedule: Q04DX003 (ip), vehicle: Klucel (hydroxypropylcellulose) (HPC)): 3 of 6

Nc1ccc2cc(Cl)ccc2c1
survivor count (dose: 25.0 mg/kg/injection, schedule: Q01DX009 (ip), vehicle: saline with Tween-80): 5 of 6
survivor count (dose: 37.5 mg/kg/injection, schedule: Q01DX009 (ip), vehicle: saline with Tween-80): 5 of 6

Cc1ccc2c(c1)sc1nnc(C)n12
survivor count [2]: 0 of 6

COc1ccc(OC)c2c(NCCNCCO)cc(NCCNCCO)nc12
survivor count (dose: 60.0 mg/kg/injection, schedule: Q01DX005 (ip), vehicle: saline): 3 of 6
survivor count (dose: 120.0 mg/kg/injection, schedule: Q01DX005 (ip), vehicle: saline): 0 of 6
survivor count [7]: 0 of 6

CCN(CC)c1ccc([P+](=O)O)cc1
survivor count [1]: 6 of 6

CS/C(=C(\C#N)C(N)=O)N1CC1
survivor count (dose: 400.0 mg/kg/injection, schedule: Q04DX002 (ip), vehicle: DMSO): 0 of 3

[O-][n+]1ccccc1C[P+](c1ccccc1)(c1ccccc1)c1ccccc1
survivor count (dose: 6.25 mg/kg/injection, schedule: Q01DX009 (ip), vehicle: water): 6 of 6
survivor count (dose: 25.0 mg/kg/injection, schedule: Q01DX009 (ip), vehicle: water): 6 of 6
survivor count (dose: 100.0 mg/kg/injection, schedule: Q01DX009 (ip), vehicle: water): 1 of 6 and 2 of 6
